{
  "source": "patent US20140088056A1",
  "about": "“CARDIAC GLYCOSIDES ARE POTENT INHIBITORS OF INTERFERON-BETA GENE EXPRESSION” (priority 2010, published 2014)",
  "system": "IFNβ promoter",
  "type": "cell-based, human",
  "conditions": "chemical library screen",
  "data": [
    {"smiles": "CNC1CCc2cc(OC)c(OC)c(OC)c2-c2ccc(OC)c(=O)cc21", "note": "(stereo not shown) [Colcemid]", "values": [
      {"measurement": "Inhibition % @ 10 μM of virus induced IFNβ expression", "result": 52.7, "unit": "%"}
    ]}
  ]
}
